For this assay, the target named is T1, endogenous allophycocyanin (APC) core of the Synechocystis phycobilisome (Synechocystis sp. PCC 6803 (endogenous)) (UniProt Q01951+Q01952).
T1 sequence 1: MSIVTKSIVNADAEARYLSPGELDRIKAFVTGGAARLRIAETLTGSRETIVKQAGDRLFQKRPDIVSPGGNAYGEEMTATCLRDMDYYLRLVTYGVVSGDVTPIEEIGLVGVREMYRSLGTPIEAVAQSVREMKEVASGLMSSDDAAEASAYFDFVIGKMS
T1 sequence 2: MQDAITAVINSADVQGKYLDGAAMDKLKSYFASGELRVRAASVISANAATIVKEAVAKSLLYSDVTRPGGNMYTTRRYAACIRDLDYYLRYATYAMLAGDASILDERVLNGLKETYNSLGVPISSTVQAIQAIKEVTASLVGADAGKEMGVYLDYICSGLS
The assay can be described thus: co-sedimentation; sucrose step gradient (0.25-2.0 M sucrose in 0.8 M phosphate buffer, pH 7.0) of phycobilisome extracts of strains SynBAC2C1, SynBA, TeBA and SynO; 220,000 g, 18 h, 20 °C; bands precipitated with ammonium sulfate and analysed by SDS-PAGE with silver staining.

These are yes or no findings as the source states them, for the method shown. Binding seen in cells or lysates may run through a third protein. Some results given as binding are weak or reduced against the parent protein; the word gives no strength.

As for “core-membrane linker ApcE (Synechocystis) (from UniProt Q55544 1-896)”, the binding result was “binds”.
